At least one structure is not confirmed: it was looked up by name or label, or the drawing left a doubt.
Tests used:
Assay type in all cases: cell-based, human
MDA-MB-453 cells = experiment: Inhibition of proliferation of MDA-MB-453 cells (CCK-8)
Procedure: (§1) • MDA-MB-453 cell line (Cell Bank of Chinese Academy of Sciences, TCHu35) • FBS (Gibco, Cat. No. 10099-141) • 0.01M PBS (Biosharp, Cat. No. 162262) • RIPM1640 (Hyclone, Cat. No. 308090.01) • Penicillin-Streptomycin (Hyclone, Cat. No. SV30010) • Cell counting kit-8 (Signalway Antibody, Cat. No. CP002) • DMSO (Sigma, Cat. No. D5879) • Centrifuge Tube, 15 ml (Excell Bio, Cat. No. CS015-0001) • Cell Culture Dish, (Excell Bio, Cat. No. CS016-0128) • 96-well cell culture cluster (Corning, Cat. No. 3599) 3. Experimental Method
1) MDA-MB-453 cells were subcultured in cell culture media, and the cells in good growth condition were seeded in a 96-well plate, 80 μL for each well, thus the number of cells per well was 1500, then the plate was cultured overnight in a 37° C., 5% CO2 cell incubator.
(§2) 2) The drug was prepared with dimethyl sulfoxide (DMSO) as a 10 mM stock solution. Prior to use, the solution was diluted 3 times with DMSO, and then diluted with a 3-fold gradient to obtain 9 concentration gradients. […]
(§3) (2) The absorbance (OD value) at 450 nm was measured with a multifunctional microplate reader.
(§4) (3) The data was analyzed by the Dose-response-inhibition equation in the software GraphPad Prism6, and the IC50 value was obtained.

BT474 cells = experiment: Inhibition of proliferation of BT474 cells (CCK-8)
Procedure: as §1, with “BT474” for “MDA-MB-453”, “TCHu143)” for “TCHu35)”, “Dish” for “Dish,”
1) BT474 cells were subcultured in cell culture media, and the cells in good growth condition were seeded in a 96-well plate, 80 μL for each well, thus the number of cells per well was 1500, then the plate was cultured overnight in a 37° C., 5% CO2 cell incubator.
as §2, §3, §4

MCF-7 cells = experiment: Inhibition of proliferation of MCF-7 cells (CCK-8)
Procedure: as §1, with “MCF-7” for “MDA-MB-453”, “TCHu74)” for “TCHu35)”
1) MCF-7 cells were subcultured in cell culture media, and the cells in good growth condition were seeded in a 96-well plate, 80 μL for each well, thus the number of cells per well was 1000, then the plate was cultured overnight in a 37° C., 5% CO2 cell incubator.
as §2, §3, §4

[2H]C([2H])([2H])n1cc(-c2cc(NS(=O)(=O)CC)ccc2N2CCC3(CC2)CC3)c2cc[nH]c2c1=O [Compound 41]
effective inhibitory action: inhibitory action on MDA-MB-453 cells (in words) (MDA-MB-453 cells) | inhibitory action on BT474 cells (in words) (BT474 cells) | inhibitory action on MCF-7 cells (in words) (MCF-7 cells)

Reference: patent US12162878B2 (HINOVA PHARMACEUTICALS INC., priority 2018, dated 2024)
